Results from US20010005752A1, “Fluorescent dyes (AIDA) for solid phase and solution phase screening” (priority 1998, published 2001).
Read-outs that look alike come from different tables or passages of the source. For part of these data: For at least one compound, name, drawing or mass did not settle the structure. Some entries share one result that the patent states for a list of compounds.

Amino acid sequences for entries named in this document (tags omitted). Residues count along the entry.
UniProt P02701, 25-152: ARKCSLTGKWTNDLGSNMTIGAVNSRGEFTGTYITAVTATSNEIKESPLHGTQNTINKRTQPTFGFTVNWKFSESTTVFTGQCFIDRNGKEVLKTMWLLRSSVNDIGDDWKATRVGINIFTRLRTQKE

Legend:
avidin-BODIPY-FL = biological target: T1, avidin-BODIPY-FL (Gallus gallus, UniProt P02701); assay: FRET / quenching with avidin-BODIPY-FL (AIDA donor, BODIPY-FL acceptor); type: binding; settings: 50 nM conjugate, 1 μM avidin-BODIPY-FL, excitation 338 nm, emission 360-516 nm
T1 construct: BODIPY FL (chemical fluorescent label, about 3.3 per avidin); purchased Molecular Probes (Eugene, Oreg.) A-2641
Method: For solubility reasons, 4e is spectroscopically characterized in THF. All complexation reactions and fluorescence resonance energy transfer measurements are performed in PBS/5% DMSO at 25° C., unless indicated otherwise.
Spectral bandwidths are set to 8 and 16 nm for excitation and emission, respectively. Measurements are performed at 25° C. in a 750 μL quartz cuvette (10 mm optical pathlength) without stirring after initial mixing. A concentration of 50 nM of 9 or 11 is used for complexation with 1 μM of (fluorescent) avidin. […] All titrations are performed in magic angle setting, with the emission wavelength set to […] in experiments where the indazole is the acceptor, and with an excitation spectrum recorded from 250 nm to 360 nm. In experiments where indazole is used as donor and Lucifer Yellow or BODIPY FL is the acceptor, the excitation wavelength is set to 338 nm or 325 nm. The fluorescence emission is collected between 360 nm and 700 nm. […]
In these experiments 11 was used as donor and BODIPY-FL as acceptor. […] The approximately 80% reduction in signal intensity of 11 can be caused either by FRET or from local quenching of the fluorescence of 11 mainly by ground state interactions. […] Due to the broad fluorescence emission of 11 in water the detection wavelength can be shifted up to 500 nm which is at lower energy than most background fluorescence signals from small chemical compounds.

[1] = cited from earlier work

SMILES | quenching of indazole (donor) emission in complex with avidin-BODIPY-FL (avidin-BODIPY-FL) | quantum yield (comparison) ([1]; in organic solvents) | quantum yield (comparison) ([1]; linked to proteins or RNA)
NC(=O)c1ccc(-n2nc(-c3ccc(C(=O)NCCCNC(=O)CCCCC4SCC5NC(=O)NC54)cc3)c3ccccc32)cc1 (stereo not drawn) [compound 8, 3′(+)-4-{3-[4-(3′-Biotinoylaminopropyl)-aminocarbonyl]phenyl-1H-indazol-1-yl}-benzoic acid Amide] | 70-90% |  | 
O=C1OC2(c3ccc(O)cc3Oc3cc(O)ccc32)c2ccccc21 [fluorescein] |  | ≈ 0.9 | 0.2 - 0.4
